From PMC11898288
These are yes or no findings as the source states them, for the method shown. Binding seen in cells or lysates may run through a third protein. Some entries that bind do so weakly or less than the wild type.

Sequences of proteins named here, by UniProt entry; tags and fusion partners are left off.
UniProt Q06609: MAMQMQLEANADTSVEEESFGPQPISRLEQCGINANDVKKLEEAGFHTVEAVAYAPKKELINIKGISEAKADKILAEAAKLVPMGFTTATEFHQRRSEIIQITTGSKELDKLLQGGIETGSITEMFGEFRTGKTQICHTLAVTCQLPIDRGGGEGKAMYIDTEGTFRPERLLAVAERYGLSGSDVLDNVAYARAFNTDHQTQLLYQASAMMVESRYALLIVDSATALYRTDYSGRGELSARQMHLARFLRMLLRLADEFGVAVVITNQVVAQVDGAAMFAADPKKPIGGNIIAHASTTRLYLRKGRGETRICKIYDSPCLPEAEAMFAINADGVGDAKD
UniProt Q92830: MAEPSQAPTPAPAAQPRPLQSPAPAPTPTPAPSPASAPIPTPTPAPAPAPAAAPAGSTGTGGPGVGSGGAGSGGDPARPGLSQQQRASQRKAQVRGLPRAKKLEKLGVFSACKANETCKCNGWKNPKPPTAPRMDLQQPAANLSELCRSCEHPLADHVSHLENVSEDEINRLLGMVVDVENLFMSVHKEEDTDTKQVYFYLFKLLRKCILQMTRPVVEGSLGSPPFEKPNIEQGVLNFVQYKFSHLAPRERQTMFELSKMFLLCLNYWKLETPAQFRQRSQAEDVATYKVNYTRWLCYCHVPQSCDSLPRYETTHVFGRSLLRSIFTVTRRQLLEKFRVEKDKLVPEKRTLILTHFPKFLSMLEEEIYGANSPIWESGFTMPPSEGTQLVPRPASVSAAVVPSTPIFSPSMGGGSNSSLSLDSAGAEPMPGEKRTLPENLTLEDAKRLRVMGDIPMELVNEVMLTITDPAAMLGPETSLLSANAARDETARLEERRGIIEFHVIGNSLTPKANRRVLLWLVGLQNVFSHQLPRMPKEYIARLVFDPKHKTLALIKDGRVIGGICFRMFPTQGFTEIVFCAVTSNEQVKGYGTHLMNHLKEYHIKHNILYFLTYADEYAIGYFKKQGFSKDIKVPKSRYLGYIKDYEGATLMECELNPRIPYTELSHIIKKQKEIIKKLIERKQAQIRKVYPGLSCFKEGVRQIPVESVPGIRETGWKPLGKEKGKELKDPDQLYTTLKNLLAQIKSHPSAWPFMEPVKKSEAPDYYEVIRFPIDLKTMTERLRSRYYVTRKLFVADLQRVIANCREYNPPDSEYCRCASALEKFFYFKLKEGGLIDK

Assays:
[1] = molecular target: RAD51 (endogenous) (human (endogenous in the cell lines of the study)) (UniProt Q06609); test: co-IP; endogenous RAD51 and GCN5 in cell lysate; specific primary antibodies, protein A/G beads, Western blotting
Flag-RAD51 (wild type) [2] = molecular target: Flag-RAD51 (wild type) (UniProt Q06609); test: co-IP; HEK293T transfected with WT, K73R or K40R RAD51 vectors; co-IP and Western blotting
Flag-RAD51 (wild type) [3] = molecular target: Flag-RAD51 (wild type) (UniProt Q06609); test: co-IP; HEK293T co-transfected with Myc-GCN5 and Flag-RAD51 vectors; immunoprecipitated with anti-Flag antibodies, Western blotting

Substance: GCN5 (endogenous) (from UniProt Q92830 1-837)
- binding [1]: binds

Substance: GCN5 in HEK293T cells (Figure 6L) (from UniProt Q92830 1-837)
- binding (Flag-RAD51 (wild type) [2]): binds

Substance: Myc-GCN5 (from UniProt Q92830 1-837)
- binding (Flag-RAD51 (wild type) [3]): binds
